# This is one part of the list. The data scatter; read single values as rough.
# The chains behind the UniProt entries cited, without tags or fusion partners. Where a name states a change or a piece, a line headed by the entry shows the natural chain unless it says otherwise. Residues count along the entry.
# UniProt Q92622: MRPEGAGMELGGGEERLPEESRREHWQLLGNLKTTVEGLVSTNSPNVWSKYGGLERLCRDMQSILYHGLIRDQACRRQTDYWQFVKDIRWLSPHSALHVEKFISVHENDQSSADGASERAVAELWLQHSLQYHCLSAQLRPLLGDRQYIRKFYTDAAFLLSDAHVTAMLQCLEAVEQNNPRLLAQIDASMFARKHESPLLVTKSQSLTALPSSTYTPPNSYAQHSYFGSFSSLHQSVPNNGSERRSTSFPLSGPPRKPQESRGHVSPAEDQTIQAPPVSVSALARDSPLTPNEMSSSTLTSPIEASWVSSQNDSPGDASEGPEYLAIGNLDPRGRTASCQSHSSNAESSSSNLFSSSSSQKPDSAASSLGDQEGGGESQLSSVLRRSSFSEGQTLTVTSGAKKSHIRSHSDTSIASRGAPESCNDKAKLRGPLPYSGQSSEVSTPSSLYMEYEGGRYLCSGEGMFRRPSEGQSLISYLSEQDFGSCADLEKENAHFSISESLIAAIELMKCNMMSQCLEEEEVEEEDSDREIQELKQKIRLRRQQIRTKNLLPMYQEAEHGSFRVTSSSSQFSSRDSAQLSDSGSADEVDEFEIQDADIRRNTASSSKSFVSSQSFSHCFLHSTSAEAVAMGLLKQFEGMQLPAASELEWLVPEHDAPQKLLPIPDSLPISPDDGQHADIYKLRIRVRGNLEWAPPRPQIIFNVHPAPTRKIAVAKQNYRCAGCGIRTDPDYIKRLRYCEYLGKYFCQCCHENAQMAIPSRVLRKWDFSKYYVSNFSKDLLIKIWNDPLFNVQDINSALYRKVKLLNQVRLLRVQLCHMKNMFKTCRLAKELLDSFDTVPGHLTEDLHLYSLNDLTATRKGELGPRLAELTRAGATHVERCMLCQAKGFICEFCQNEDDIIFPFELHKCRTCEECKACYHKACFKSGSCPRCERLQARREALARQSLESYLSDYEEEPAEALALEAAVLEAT
# UniProt Q96P16: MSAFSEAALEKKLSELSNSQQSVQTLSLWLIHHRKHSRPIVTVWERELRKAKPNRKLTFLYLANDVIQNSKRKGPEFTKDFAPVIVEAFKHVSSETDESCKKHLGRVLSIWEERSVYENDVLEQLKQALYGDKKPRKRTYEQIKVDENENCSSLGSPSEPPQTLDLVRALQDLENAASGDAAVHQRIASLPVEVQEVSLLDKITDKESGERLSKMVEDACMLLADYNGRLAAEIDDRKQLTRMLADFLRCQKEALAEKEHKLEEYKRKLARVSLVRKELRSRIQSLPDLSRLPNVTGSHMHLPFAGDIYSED
# UniProt P13489: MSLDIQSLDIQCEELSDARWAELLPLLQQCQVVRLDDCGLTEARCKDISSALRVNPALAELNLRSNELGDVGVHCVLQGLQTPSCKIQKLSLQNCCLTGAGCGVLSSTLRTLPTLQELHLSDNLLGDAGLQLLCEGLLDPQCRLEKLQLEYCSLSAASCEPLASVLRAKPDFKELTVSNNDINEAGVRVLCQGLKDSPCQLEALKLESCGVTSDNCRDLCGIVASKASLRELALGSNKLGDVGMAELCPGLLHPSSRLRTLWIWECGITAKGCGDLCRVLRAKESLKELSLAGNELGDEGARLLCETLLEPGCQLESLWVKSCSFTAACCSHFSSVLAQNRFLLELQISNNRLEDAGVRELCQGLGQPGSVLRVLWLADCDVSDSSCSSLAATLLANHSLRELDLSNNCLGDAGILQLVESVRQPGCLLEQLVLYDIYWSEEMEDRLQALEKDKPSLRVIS
# UniProt P62070: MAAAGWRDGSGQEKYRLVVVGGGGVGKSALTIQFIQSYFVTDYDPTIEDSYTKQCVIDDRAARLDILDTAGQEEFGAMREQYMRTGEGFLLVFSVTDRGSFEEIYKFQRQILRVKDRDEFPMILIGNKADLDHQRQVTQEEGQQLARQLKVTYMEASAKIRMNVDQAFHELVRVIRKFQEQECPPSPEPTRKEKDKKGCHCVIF
# UniProt Q96BU1, 146-173: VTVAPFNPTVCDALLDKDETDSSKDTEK
# UniProt O75116: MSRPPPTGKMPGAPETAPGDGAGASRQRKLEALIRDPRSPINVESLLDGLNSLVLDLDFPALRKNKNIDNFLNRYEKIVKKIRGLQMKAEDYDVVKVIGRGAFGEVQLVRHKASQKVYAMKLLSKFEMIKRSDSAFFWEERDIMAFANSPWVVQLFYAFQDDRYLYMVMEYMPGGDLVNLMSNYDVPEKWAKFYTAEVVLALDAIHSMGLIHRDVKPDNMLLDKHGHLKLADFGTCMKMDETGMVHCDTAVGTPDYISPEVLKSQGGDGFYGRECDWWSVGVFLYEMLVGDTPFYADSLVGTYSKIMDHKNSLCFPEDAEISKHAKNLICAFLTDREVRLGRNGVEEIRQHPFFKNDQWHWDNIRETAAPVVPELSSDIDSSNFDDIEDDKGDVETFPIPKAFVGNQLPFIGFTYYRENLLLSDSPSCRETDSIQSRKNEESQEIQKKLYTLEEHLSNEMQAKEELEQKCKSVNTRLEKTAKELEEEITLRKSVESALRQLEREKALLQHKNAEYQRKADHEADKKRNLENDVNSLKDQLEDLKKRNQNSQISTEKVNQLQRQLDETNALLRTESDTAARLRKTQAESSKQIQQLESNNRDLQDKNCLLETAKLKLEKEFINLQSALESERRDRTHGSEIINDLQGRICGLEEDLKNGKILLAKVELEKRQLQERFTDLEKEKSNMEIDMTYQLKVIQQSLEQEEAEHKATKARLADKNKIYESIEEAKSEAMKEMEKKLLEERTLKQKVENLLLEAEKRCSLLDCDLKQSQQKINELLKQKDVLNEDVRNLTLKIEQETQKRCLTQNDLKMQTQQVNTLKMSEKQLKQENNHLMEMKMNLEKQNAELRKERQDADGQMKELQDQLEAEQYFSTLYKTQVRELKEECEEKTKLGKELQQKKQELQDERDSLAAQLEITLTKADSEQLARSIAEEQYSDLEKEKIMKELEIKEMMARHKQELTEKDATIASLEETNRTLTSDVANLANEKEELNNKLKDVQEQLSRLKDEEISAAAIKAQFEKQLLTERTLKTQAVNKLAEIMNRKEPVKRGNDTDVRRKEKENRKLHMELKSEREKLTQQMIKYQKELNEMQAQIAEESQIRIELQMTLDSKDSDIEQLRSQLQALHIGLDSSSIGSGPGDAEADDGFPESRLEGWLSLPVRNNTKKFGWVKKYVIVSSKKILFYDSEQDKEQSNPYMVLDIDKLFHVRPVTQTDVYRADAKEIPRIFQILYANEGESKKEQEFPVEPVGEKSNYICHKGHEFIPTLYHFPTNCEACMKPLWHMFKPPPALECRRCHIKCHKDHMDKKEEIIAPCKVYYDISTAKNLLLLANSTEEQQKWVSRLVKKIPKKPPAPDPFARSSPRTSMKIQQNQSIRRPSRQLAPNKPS
# UniProt Q8NCN4: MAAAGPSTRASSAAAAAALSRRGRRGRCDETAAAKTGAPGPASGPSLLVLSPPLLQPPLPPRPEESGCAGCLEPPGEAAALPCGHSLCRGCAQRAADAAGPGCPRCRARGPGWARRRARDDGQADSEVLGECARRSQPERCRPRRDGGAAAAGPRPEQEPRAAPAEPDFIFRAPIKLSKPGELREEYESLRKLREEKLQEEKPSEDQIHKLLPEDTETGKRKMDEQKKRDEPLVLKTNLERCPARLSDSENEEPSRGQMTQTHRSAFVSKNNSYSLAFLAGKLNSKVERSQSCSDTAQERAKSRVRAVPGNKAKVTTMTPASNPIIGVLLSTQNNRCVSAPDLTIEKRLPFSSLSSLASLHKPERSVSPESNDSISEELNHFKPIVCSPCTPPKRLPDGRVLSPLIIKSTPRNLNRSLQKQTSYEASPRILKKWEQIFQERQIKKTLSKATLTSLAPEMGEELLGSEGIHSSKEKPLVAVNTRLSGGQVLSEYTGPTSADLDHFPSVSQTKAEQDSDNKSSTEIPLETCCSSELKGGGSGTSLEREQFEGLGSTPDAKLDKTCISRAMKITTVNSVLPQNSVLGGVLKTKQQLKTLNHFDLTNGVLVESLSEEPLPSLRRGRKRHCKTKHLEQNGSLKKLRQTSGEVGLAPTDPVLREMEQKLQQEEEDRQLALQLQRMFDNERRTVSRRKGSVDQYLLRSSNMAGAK
# UniProt Q8N5L8: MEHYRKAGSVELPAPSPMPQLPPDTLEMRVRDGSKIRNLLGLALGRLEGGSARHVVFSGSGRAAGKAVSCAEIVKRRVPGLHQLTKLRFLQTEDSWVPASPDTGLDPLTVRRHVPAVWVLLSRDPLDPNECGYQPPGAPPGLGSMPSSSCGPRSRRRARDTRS
# UniProt Q86VV8: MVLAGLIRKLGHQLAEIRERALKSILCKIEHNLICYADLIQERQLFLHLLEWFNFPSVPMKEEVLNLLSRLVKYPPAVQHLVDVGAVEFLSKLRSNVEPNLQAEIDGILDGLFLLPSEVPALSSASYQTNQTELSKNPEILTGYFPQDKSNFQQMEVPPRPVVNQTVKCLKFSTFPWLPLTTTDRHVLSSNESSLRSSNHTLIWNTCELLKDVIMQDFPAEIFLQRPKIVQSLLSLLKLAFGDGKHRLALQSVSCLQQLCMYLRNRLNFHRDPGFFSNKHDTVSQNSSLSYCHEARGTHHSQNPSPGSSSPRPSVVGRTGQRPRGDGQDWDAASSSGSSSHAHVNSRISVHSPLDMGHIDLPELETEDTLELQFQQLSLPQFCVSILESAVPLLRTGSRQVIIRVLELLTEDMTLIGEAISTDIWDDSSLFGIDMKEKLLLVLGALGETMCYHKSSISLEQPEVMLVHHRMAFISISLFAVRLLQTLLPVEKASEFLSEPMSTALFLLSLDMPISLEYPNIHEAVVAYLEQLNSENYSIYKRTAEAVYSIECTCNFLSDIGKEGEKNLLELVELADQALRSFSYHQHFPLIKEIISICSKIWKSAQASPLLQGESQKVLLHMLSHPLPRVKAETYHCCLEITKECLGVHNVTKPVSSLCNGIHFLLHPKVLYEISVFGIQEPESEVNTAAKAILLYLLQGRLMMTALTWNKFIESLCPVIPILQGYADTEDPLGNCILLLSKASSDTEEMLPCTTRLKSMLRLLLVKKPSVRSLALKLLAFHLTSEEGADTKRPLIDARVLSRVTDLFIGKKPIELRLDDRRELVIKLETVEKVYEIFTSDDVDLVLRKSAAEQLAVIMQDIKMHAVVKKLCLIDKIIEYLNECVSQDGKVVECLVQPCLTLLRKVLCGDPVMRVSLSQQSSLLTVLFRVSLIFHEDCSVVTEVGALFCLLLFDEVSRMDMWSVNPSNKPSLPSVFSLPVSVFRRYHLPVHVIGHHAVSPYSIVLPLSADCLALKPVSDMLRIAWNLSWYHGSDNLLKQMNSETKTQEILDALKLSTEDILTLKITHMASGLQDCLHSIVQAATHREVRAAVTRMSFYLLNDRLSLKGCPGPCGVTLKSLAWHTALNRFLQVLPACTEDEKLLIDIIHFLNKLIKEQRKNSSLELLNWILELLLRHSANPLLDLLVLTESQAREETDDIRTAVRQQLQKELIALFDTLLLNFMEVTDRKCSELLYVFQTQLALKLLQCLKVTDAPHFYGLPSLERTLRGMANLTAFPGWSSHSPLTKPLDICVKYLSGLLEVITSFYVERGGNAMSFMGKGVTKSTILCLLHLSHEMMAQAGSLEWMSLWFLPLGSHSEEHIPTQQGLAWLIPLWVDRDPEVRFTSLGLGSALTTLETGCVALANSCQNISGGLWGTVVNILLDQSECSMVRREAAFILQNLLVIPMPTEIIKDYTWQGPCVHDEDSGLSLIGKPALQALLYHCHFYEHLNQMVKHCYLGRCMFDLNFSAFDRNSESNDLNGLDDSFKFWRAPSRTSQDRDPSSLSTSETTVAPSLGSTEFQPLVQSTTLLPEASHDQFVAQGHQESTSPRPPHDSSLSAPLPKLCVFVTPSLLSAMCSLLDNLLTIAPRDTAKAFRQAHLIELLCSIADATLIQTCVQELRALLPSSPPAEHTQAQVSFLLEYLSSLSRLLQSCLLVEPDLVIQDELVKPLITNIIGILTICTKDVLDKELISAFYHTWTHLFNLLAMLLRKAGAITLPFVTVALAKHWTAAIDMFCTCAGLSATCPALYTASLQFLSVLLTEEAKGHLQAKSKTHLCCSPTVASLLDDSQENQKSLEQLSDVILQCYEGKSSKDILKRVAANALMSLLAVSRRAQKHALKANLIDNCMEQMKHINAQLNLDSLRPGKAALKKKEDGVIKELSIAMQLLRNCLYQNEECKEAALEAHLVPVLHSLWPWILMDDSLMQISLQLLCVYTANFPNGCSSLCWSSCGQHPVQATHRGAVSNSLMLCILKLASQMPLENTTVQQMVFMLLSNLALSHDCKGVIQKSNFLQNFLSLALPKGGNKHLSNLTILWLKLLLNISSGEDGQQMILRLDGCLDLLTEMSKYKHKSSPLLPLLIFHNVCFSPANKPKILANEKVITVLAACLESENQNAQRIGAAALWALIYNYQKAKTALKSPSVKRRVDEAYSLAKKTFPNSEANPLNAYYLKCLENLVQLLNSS
# UniProt P10155, 288-307: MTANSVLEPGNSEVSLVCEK
# UniProt Q5M7Z0, 43-66: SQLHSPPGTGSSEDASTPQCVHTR
# UniProt O43148, 83-103: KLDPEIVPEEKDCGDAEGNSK
# UniProt Q9H7B2, 135-158: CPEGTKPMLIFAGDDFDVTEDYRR
# UniProt Q8TDP1, 23-46: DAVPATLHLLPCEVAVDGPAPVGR
# Legend:
# [1] = compound: ClCC(=O)N[C@@H]1CCCc2ccccc12; experiment: log2 mean competition ratio of IA-DTB cysteine labelling (DMSO/compound) (log2 ratio); higher = stronger cysteine engagement by compound; conditions: treatment time: 4 h, cell line lysate: HEK293T
# Method: (§1)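 IA-DTB competitive cysteine chemoproteomics in HEK293T RIPA lysate. Lysates were treated with compound 29 or 30 at 50 or 200 µM for 4 h, then IA-DTB (500 µM, 1 h), trypsin-digested, NeutrAvidin-enriched and analysed by diaPASEF. Competition ratio = intensity DMSO / intensity compound (n=4 treated, n=64 DMSO); binding: mean log2 CR ≥ 1 and p ≤ 0.05 plus QC filters. Target is the cysteine site.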
# [2] = compound: ClCC(=O)N[C@H]1CCCc2ccccc12; experiment: as above; conditions: treatment time: 4 h, cell line lysate: HEK293T
# Method: as §1
Target,log2 mean competition ratio ([1]; 50 µM),log2 mean competition ratio ([1]; 200 µM),log2 mean competition ratio ([2]; 50 µM),log2 mean competition ratio ([2]; 200 µM)
RND3 C125,0.00758,-0.447,0.0659,-0.246
RUBCN C459 (UniProt Q92622),-0.0945,-0.104,-0.355,0.143
RPRD1A C100 (UniProt Q96P16),-0.071,0.159,-0.0431,0.0866
RRAGC C377 (UniProt Q9HB90),0.401,-0.143,0.451,-0.165
ROCK1 C1070 (UniProt Q13464),-0.318,-0.437,0.0528,-0.183
RPS20 C36 (UniProt P60866),0.174,-0.305,-0.05,-0.289
RNH1 C220 (UniProt P13489),0.255,-0.225,0.477,-0.139
RRAS2 C55 (UniProt P62070),-0.261,0.0623,0.146,0.177
S100PBP C156 (UniProt Q96BU1),-0.117,-0.579,0.03,-0.174
RPRD2 C1071 (UniProt Q5VT52),-0.103,-0.211,0.139,-0.135
ROCK2 C649 (UniProt O75116),-0.12,0.0936,-0.751,0.101
RPS16 C25 (UniProt P62249),0.464,-0.478,0.538,-0.437
RTKN C341 (UniProt Q9BST9),0.243,-0.171,-0.014,-0.065
RNF169 C337 (UniProt Q8NCN4),0.14,0.273,-0.308,0.12
RPL4 C96 (UniProt P36578),0.097,0.0295,0.124,0.111
RPN2 C72 (UniProt P04844),0.343,0.00186,0.253,-0.163
RPL3 C336 (UniProt P39023),0.201,-0.41,0.243,-0.414
RPP25L C70 (UniProt Q8N5L8),0.312,-0.246,0.603,-0.226
RND3 C34,-0.169,0.00973,-0.211,0.267
RTRAF C19 (UniProt Q9Y224),0.37,0.464,0.194,-0.113
RNF213 C3008,-0.0674,0.111,-0.244,0.108
RTTN C753 (UniProt Q86VV8),0.0907,0.212,0.28,0.183
RO60 C305 (UniProt P10155),-0.277,0.0135,0.0194,-0.00966

Target,log2 mean competition ratio ([1]; 50 µM),log2 mean competition ratio ([1]; 200 µM),log2 mean competition ratio ([2]; 50 µM),log2 mean competition ratio ([2]; 200 µM)
RNFT1 C62 (UniProt Q5M7Z0),0.146,0.126,0.278,-0.0899
SACS C3655 (UniProt Q9NZJ4),0.166,-0.602,-0.225,0.0712
RRAS2 C183 (UniProt P62070),-0.0487,0.508,-0.499,-0.0729
RPS3 C97,0.0225,-0.101,0.0288,0.017
RNH1 C38 (UniProt P13489),-0.146,0.0646,-0.629,0.157
RNMT C95 (UniProt O43148),-0.361,0.00545,-0.00168,-0.0854
RPS15A C72 (UniProt P62244),0.164,-0.301,0.321,-0.243
RO60 C499 (UniProt P10155),0.223,0.331,0.634,-0.0612
RNPC3 C343 (UniProt Q96LT9),-0.342,-0.00228,-0.0499,-0.0429
RTF2 C3 (UniProt Q9BY42),-0.126,0.0152,0.119,0.0737
RPL23 C28 (UniProt P62829),0.143,0.139,0.0472,-0.0291
RPS5 C172 (UniProt P46782),-0.0104,-0.473,0.00565,-0.308
RPF2 C135 (UniProt Q9H7B2),0.182,-0.0492,-0.0653,-0.00278
RPS20 C70 (UniProt P60866),0.325,-0.323,0.282,-0.219
RTKN C62 (UniProt Q9BST9),0.0745,0.12,0.334,0.187
RPL18A C64 (UniProt Q02543),0.173,-0.459,0.61,-0.324
RPS6KA1 C432 (UniProt Q15418),0.0545,-0.108,0.864,-0.235
RPL36A;RPL36AL C77;(C77),-0.524,-0.00626,0.3,0.381
RRP12 C102 (UniProt Q5JTH9),0.237,0.145,0.46,0.145
RNF20 C905 (UniProt Q5VTR2),-0.188,0.0195,-0.46,-0.0554
RPP30 C257,0.0614,-0.0061,-0.159,0.142
RNASEH2C C34 (UniProt Q8TDP1),0.126,0.916,-0.249,-0.0252

# 2 consecutive entries already listed, for reference:
Target,log2 mean competition ratio ([1]; 50 µM),log2 mean competition ratio ([1]; 200 µM),log2 mean competition ratio ([2]; 50 µM),log2 mean competition ratio ([2]; 200 µM)
RPP30 C257,0.0614,-0.0061,-0.159,0.142
RNASEH2C C34 (UniProt Q8TDP1),0.126,0.916,-0.249,-0.0252
